Numbering of substitutions follows the chain as printed. Names may count otherwise. Results are given in words; binding and its absence hold for the method and conditions named. For some assays here: Tags and fused reporters may be left off the sequences shown.
Assays:
[1] = target: His-tagged GalF from Escherichia coli (Escherichia coli K-12) (UniProt P0AAB6); experiment: SEC; purified enzyme diluted fivefold (final 5 mg/ml) with 100 mM Tris-HCl pH 8.0, incubated 30 min at 4°C, then gel filtration; both purified
[2] = target: His-tagged GalF from Escherichia coli (Escherichia coli K-12) (UniProt P0AAB6); experiment: SEC; purified enzyme diluted fivefold (final 5 mg/ml) with 100 mM HEPES-NaOH pH 8.0, incubated 30 min at 4°C, then gel filtration; both purified
[3] = target: His-tagged GalF from Escherichia coli (Escherichia coli K-12) (UniProt P0AAB6); experiment: SEC; gel filtration of the purified protein on Superdex 200 HR 10/30 in 25 mM Tris-HCl pH 8.0, 100 mM NaCl, 0.1 mM EDTA; mass from a calibration plot of standards; both purified
[4] = target: GalF_(M15T/H16R) (Escherichia coli K-12) (UniProt P0AAB6); experiment: as above
[5] = target: GalF_(K198A) (Escherichia coli K-12) (UniProt P0AAB6); experiment: as above

B1: His-tagged GalF from Escherichia coli (protein, UniProt P0AAB6 1-297)
chain: MTNLKAVIPVAGLGMHMLPATKAIPKEMLPIVDKPMIQYIVDEIVAAGIKEILLVTHASKNAVENHFDTSYELESLLEQRVKRQLLAEVQSICPPGVTIMNVRQGEPLGLGHSILCARPAIGDNPFVVVLPDVVIDDASADPLRYNLAAMIARFNETGRSQVLAKRMPGDLSEYSVIQTKEPLDREGKVSRIVEFIEKPDQPQTLDSDIMAVGRYVLSADIWPELERTQPGAWGRIQLTDAIAELAKKQSVDAMLMTGDSYDCGKKMGYMQAFVKYGLRNLKEGAKFRKGIEKLLSE
binding [1]: no binding (tested: 5 mg/ml) | binding [2]: no binding (tested: 5 mg/ml) | binding [3]: no binding

B2: GalF_(M15T/H16R) (protein, UniProt P0AAB6 1-297)
chain: B1 chain with M15T, H16R
binding [4]: no binding

B3: GalF_(K198A) (protein, UniProt P0AAB6 1-297)
chain: B1 chain with K198A
binding [5]: no binding
